Test results published in PubChem BioAssay AID2685 (National Center for Advancing Translational Sciences (NCATS), 2010).
The campaign covered roughly 320,000 compounds. About 2,100 (0.66%) were called active. This list was built around the results that the source calls inconclusive (neither active nor inactive); the mix of calls is not that of the screen. The call rests on the fitted dose curve; in most records, active means well fitted inhibition curve with a large enough effect in the signal ratio, with a control signal flat (not every such curve was filed as active); inconclusive means small, poorly fitted or top-dose-only effect, or effect the other way, or a change in a side signal; inactive means flat fitted curve, though single readings scatter; the % refers to the signal ratio. Potencies of inconclusive entries are doubtful fits and often do not repeat.

Test: qHTS Assay for Lipid Storage Modulators in Drosophila S3 Cells
Conditions: BODIPY lipid droplet fluorescence, 18-24 h, cells fed with added oleic acid; lipid storage change, negative = inhibition: at 46.1 µM (top of the series) unless noted
In short: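 Drosophila S3 cells loaded with oleic acid (400 uM, as added) and compounds at several concentrations; lipid droplets imaged by 488-nm laser-scanning cytometry, 500–530 nm intensity and object ratio to cell channel. Percent activity normalized to 20 uM Triacsin C.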
On the % scale 0 is the no-effect control and ±100 the full control effect; potency means the concentration at half of the fitted maximal effect.

Row | SMILES | Potency | lipid storage change, negative = inhibition | outcome
1 | CCOC(=O)C(N)CSC1CC(=O)N(CCc2ccccc2)C1=O (stereo not drawn) | inconclusive: 4.11 µM [falling, full curve] |  | 
2 | O=C1CN(C(=O)c2ccc3nc(Cc4cccc(Cl)c4)oc3c2)CCN1 |  | inconclusive: -19.8% | 
3 | COC(=O)c1sccc1NC(=O)Nc1ccc(OC)cc1OC |  | inconclusive: -25.7% | 
4 | CNc1nc(NCc2ccccc2)c2ccccc2n1 |  | inconclusive: 63.1% | 
5 | O=C(COC(=O)COc1ccc2ccccc2c1)NCC(F)(F)F |  | inconclusive: 33.3% | 
6 | CC(C(=O)N1CCN(Cc2ccccc2)CC1)n1ncn2cccc2c1=O (stereo not drawn) |  | inconclusive: 9.05% | 
7 | COc1ccc(OC)c(NC(=O)c2cc3sccc3n2C)c1 |  | inconclusive: 232% | 
8 | COc1cccc(C(=O)Nc2ccc(NC(=O)c3cc4ccccc4o3)c(OC)c2)c1 | inconclusive: 18.4 µM [falling, partial curve, poor fit] |  | 
9 | Cc1cc(-c2ccc(Br)s2)nc(-n2cccc2)n1 |  | inconclusive: -49.1% | 
10 | CCOc1ccc(C(=O)CC(Sc2ccc(C)cc2)C(=O)O)cc1 (stereo not drawn) | inconclusive: 18.4 µM [falling, partial curve, poor fit] |  | 
11 | Cc1ccc(C(c2c(O)nc3n(c2=O)CCS3)c2c(O)nc3n(c2=O)CCS3)cc1 | inconclusive: 20.6 µM [falling, partial curve, poor fit] |  | 
12 | CCn1c2ccc(/C(C)=N\O)cc2c2cc(/C(C)=N\O)ccc21 |  | inconclusive: 41.3% | 
13 | CC1(C2CC2)NC(=O)N(CC(=O)Nc2ccc(Cl)c([N+](=O)[O-])c2)C1=O (stereo not drawn) |  | inconclusive: -30.1% | 
14 | Cn1c(=O)c2c(nc(NCc3ccco3)n2CC(O)COc2ccccc2)n(C)c1=O (stereo not drawn) |  | inconclusive: 32.1% | 
15 | COc1cc2c(cc1OC)C(c1ccc(Br)cc1)CC(=O)N2 (stereo not drawn) | inconclusive: 20.6 µM [falling, single point] |  | 
16 | CCCOc1ccc(N2C(=O)CC(N(CCc3ccc(OC)c(OC)c3)C(=O)c3ccccc3)C2=O)cc1 (stereo not drawn) |  | inconclusive: -18.3% | 
17 | Cc1ccccc1OCC(=O)OCC(=O)Nc1ccc2c(c1)OCCO2 |  | inconclusive: 7.99% | 
18 | CCC(C)(C)n1nnnc1CN1CCN(c2nc3cc(OC)ccc3cc2C#N)CC1 | inconclusive: 0.92 µM [activator, full curve] |  | 
19 | NNC(=O)c1ccc(COc2ccc3ccccc3c2)cc1 | inconclusive: 0.164 µM [activator, full curve, poor fit] |  | 
20 | CCCCC(=O)Nc1nnc(-c2ccco2)o1 |  | inconclusive: 11.7% | 
21 | CC(=O)c1cccc(S(=O)(=O)N2CCCC(c3nc(-c4ccc(C)o4)no3)C2)c1 (stereo not drawn) |  | inconclusive: 20.6% | 
22 | O=C(N/N=C/c1cccc(Oc2ccccc2)c1)c1cccc(O)c1 |  | inconclusive: 30.9% | 
23 | NNC(=O)COc1ccc(-c2nccc(-c3ccc(F)cc3)n2)cc1 |  | inconclusive: 10.4% | 
24 | O=C(O)CC(c1ccc(OC2CCCC2)cc1)N1C(=O)c2ccccc2C1=O (stereo not drawn) |  | inconclusive: -17.7% | 
25 | CCOCCNC(=O)c1ccccc1C(=O)NCCOCC |  | inconclusive: 0.309% | 
26 | COc1ccc(CNC(=O)CN(C(=O)c2snc(C(N)=O)c2N)c2ccc(F)cc2)cc1 |  | inconclusive: 44.9% | 

Row | SMILES | Potency | lipid storage change, negative = inhibition | outcome
27 | N#Cc1ccccc1CSc1ccc(-c2nc3ccccc3[nH]2)cn1 |  | inconclusive: -15% | 
28 | COCc1c(C(=O)NC2CCCCC2)sc2cccc(F)c12 |  | inconclusive: 18.7% | 
29 | COc1ccccc1N1CCN(CC(=O)Nc2cccc(F)c2)CC1 |  | inconclusive: 18.5% | 
30 | O=C(CCN1CCN(c2ccccc2)CC1)Nc1ccc(OCc2ccccc2)cc1 |  | inconclusive: -37.8% | 
31 | O=C(O)CN1CCN(Cc2ccc(F)cc2Cl)C1=O | inconclusive: 0.58 µM [falling, single point] |  | 
32 | O=C(c1ccc2c(c1)OCO2)C1CCCN(Cc2cn[nH]c2-c2ccccc2)C1 (stereo not drawn) |  | inconclusive: -1.86% | 
33 | CCOCC(=O)Nc1cc(Cl)ccc1C | inconclusive: 13 µM [activator, single point] |  | 
34 | CCC(C)(C(=O)NC1CCCCC1)N(C(=O)CC1NC(=O)NC1=O)c1c(C)n(C)n(-c2ccccc2)c1=O (stereo not drawn) |  | inconclusive: 27.4% | 
35 | CC(=O)Nc1ccc(S(=O)(=O)NC2(C(F)(F)F)NC(=O)N(c3ccc(Cl)cc3)C2=O)cc1 (stereo not drawn) |  | inconclusive: 37.8% | 
36 | COc1ccccc1NC(=S)NC(=O)C1CC1 |  | inconclusive: 2.59% | 
37 | O=C(COc1ccccc1Cl)Nc1ccc(C(=O)O)cc1NC(=O)COc1ccccc1Cl |  | inconclusive: -32.1% | 
38 | CC(C)(C)NC(=O)C(c1ccc(OCC(N)=O)cc1)N(C(=O)c1cccnc1)C1CC1 (stereo not drawn) | inconclusive: 2.31 µM [activator, partial curve] |  | 
39 | CCCn1cnc2sc(C(N)=O)c(C)c2c1=O | inconclusive: 1.46 µM [activator, partial curve, poor fit] |  | 
40 | CCC1=C(c2cc(OC)c(OC)c(OC)c2)C2(CCCC2)C(=O)O1 | inconclusive: 9.2 µM [activator, partial curve] |  | 
41 | S=C(NCCSCc1ccccc1Cl)Nc1ccccc1 |  | inconclusive: 73.4% | 
42 | Cn1c(=N)n(CC(O)c2cccs2)c2ccccc21 (stereo not drawn) |  | inconclusive: 28% | 
43 | O=C(O)COc1ccccc1/C=N/NC(=O)CNC(=O)c1ccco1 | inconclusive: 0.651 µM [falling, full curve, poor fit] |  | 
44 | CN1CCN(c2ccc(CNS(=O)(=O)c3ccc(F)cc3Cl)cc2)CC1 |  | inconclusive: 23.8% | 
45 | COc1ccc(N(CC(=O)NCCSc2ccccn2)S(=O)(=O)c2ccc(C)cc2)cc1OC | inconclusive: 4.11 µM [falling, single point] |  | 
46 | CCC(OC(=O)C(NC(=O)c1ccccc1)c1ccccc1)C(=O)Nc1cc(C)on1 (stereo not drawn) |  | inconclusive: 26.4% | 
47 | CCN1CCN(CC(=O)N2CCCC(C(=O)c3ccc(Oc4ccccc4)cc3)C2)CC1 (stereo not drawn) |  | inconclusive: -20.9% | 
48 | CC(C)(C)c1cc(NC(=O)c2cccc([N+](=O)[O-])c2)no1 |  | inconclusive: 22.2% [at 9.22 µM] | 
49 | O=C(/C=C/c1ccc2ccccc2n1)c1cc(Br)ccc1O | inconclusive: 18.4 µM [falling, single point] |  | 
50 | CCN1CCN(c2cc(C)c3cc(NC(=O)c4ccc(Br)o4)ccc3n2)CC1 |  | inconclusive: -93.8% | 
51 | CC1(c2cccc(Br)c2)NC(=O)N(CC(=O)NC2CCCCC2)C1=O (stereo not drawn) |  | inconclusive: 25.3% | 
52 | CCOC(=O)c1c(NC(=O)COC(=O)c2ccccn2)sc(C)c1C |  | inconclusive: -52.8% | 

As entered above.
Value for `CC(=O)Nc1ccc(S(=O)(=O)NC2(C(F)(F)F)NC(=O)N(c3ccc(Cl)cc3)C2=O)cc1` (stereo not drawn) under lipid storage change, negative = inhibition: inconclusive: 37.8%
Value for `COc1ccc(N(CC(=O)NCCSc2ccccn2)S(=O)(=O)c2ccc(C)cc2)cc1OC` under Potency: inconclusive: 4.11 µM [falling, single point]
Value for `CCN1CCN(c2cc(C)c3cc(NC(=O)c4ccc(Br)o4)ccc3n2)CC1` under lipid storage change, negative = inhibition: inconclusive: -93.8%
Value for `Cn1c(=N)n(CC(O)c2cccs2)c2ccccc21` (stereo not drawn) under lipid storage change, negative = inhibition: inconclusive: 28%
Value for `O=C(O)COc1ccccc1/C=N/NC(=O)CNC(=O)c1ccco1` under Potency: inconclusive: 0.651 µM [falling, full curve, poor fit]

Later entries:

Row | SMILES | Potency | lipid storage change, negative = inhibition | outcome
53 | Cc1ccc(S(=O)(=O)N(CCC(=O)N2CCOCC2)c2ccccc2)cc1 |  | inconclusive: -18.1% | 
54 | O=C(O)CS(=O)(=O)c1ccc(C(F)(F)F)cn1 | inconclusive: 4.11 µM [falling, single point] |  | 
55 | COc1ccc(C2N(c3ccc(F)cc3)C(=O)C3CCCN32)cc1 (stereo not drawn) | inconclusive: 4.11 µM [activator, single point] |  | 
56 | COc1ccc(CNC(=O)C(=O)NCC2OCCN2S(=O)(=O)c2ccc(OC)c(OC)c2)cc1 (stereo not drawn) |  | inconclusive: 59.1% | 
57 | O=C(NC(=S)Nc1ccc(N2CCOCC2)cc1)c1ccc2c(c1)OCCO2 |  | inconclusive: -5.59% | 
58 | O=C(CSc1nnc(-c2ccc(OC(F)F)cc2)o1)NCc1cccs1 | inconclusive: 29.1 µM [rising, single point] |  | 
59 | CC1CCCCN1S(=O)(=O)c1ccc(C(=O)Nc2sccc2C(N)=O)cc1 (stereo not drawn) | inconclusive: 13 µM [falling, single point] |  | 
60 | Cc1ccc(C(=O)NCc2ccccc2F)cc1S(=O)(=O)N1CCCC1 |  | inconclusive: -32.7% | 
61 | CC(=O)Nc1ccc(S(=O)(=O)N(C)CC(=O)OC(C)C(=O)NC2CCCCC2)cc1 (stereo not drawn) |  | inconclusive | 
62 | O=C(NC1CC1)C1CCN(C(=O)c2ccccc2Cl)CC1 |  |  | inactive [at 46.1 µM]
63 | OCCCCCNc1ncnc2ccccc12 | inconclusive: 25.9 µM [falling, single point] |  | 
64 | COc1ccc(N(C)S(=O)(=O)c2cccc(C(=O)N3CCN(Cc4ccc5c(c4)OCO5)CC3)c2)cc1 |  | inconclusive | 
65 | COc1ccccc1C(=O)Nc1ccnn1C1CCN(C(=O)C(C)(C)C)CC1 |  | inconclusive: -45.6% | 
66 | CCCc1nnc(NC(=O)CCC(=O)NC2CCCc3ccccc32)s1 (stereo not drawn) |  | inconclusive: 12.6% | 
67 | O=C(Nc1ccccc1)C1CCN(C(=O)c2ccco2)CC1 |  | inconclusive: -32.7% | 
68 | O=C(O)C(NS(=O)(=O)c1ccccc1)C(O)c1ccccc1 (stereo not drawn) |  | inconclusive: -1.35% | 
69 | O=C(NCC(c1ccco1)N1CCOCC1)c1ccc(F)c(F)c1 (stereo not drawn) |  | inactive: 6.58% | 
70 | O=C(/C(=C/c1ccccc1)n1cncn1)c1ccc(Cl)cc1Cl | inconclusive: 20.6 µM [falling, single point] |  | 
71 | CC(C)(C)c1ccc(C(=O)N2CCN(c3ncccn3)CC2)cc1 |  | inconclusive: 5.23% | 
72 | COc1ccccc1C/C(N)=N/OC(=O)COc1cccc2ccccc12 | inconclusive: 10.3 µM [falling, partial curve] |  | 
73 | O=c1[nH]c2cc(S(=O)(=O)CCO)ccc2o1 |  | inconclusive: -0.871% | 
74 | CN(C)CCCNC(=O)COc1ccc(Br)cc1Cl |  | inconclusive: 8.04% | 
75 | Cc1nc2cc(O)ccc2n1C |  | inconclusive: -3.74% | 
76 | COc1ccc(NC(=O)c2cccn(CC=C(C)C)c2=O)cc1 |  | inconclusive: 29.6% | 
77 | Cn1c(SC2=CS(=O)(=O)c3ccccc32)nc2ccccc21 | inconclusive: 20.6 µM [falling, single point] |  | 
78 | C=CCSc1nnc(C)c(/C=C/Nc2ccc(Cl)cc2)n1 |  | inconclusive: -5.46% | 
